Test results as given in US9161990B2 (THERAVANCE BIOPHARMA ANTIBIOTICS IP, LLC, priority 2013, dated 2015).

Experiment: general procedure: peptide synthesis; 4-(4,6-dimethoxy-1,3,5-triazin-2-yl)-4-methylmorpholinium chloride
Settings: conjugation step, trihydrochloride

26-[[[3-[[(Z)-[1-(2-Amino-5-chloro-4-thiazolyl)-2-[[(6R,7R)-2-carboxy-8-oxo-3-(pyridiniomethyl)-5-thia-1-azabicyclo[4.2.0]oct-2-en-7-yl]amino]-2-oxoethylidene]amino]oxy]propyl]amino]carbonyl]-26-decarboxyvancomycin Trihydrochloride
conjugation yield: 92.2% yield
